In doi:10.1101/2023.11.13.566904:
Results are given in words; binding and its absence hold for the method and conditions named. Some binding calls cover weakened binding; strength is not graded here. For some of these results: Where a sequence is shown, tags or fusion partners need not be part of it. Values belong to the binder of their own block, whether it stands above or below them.

How the values were obtained:
Assay in all cases: AraTM transcriptional reporter assay
[1] = target: p75^NTR TMD-AraTM chimera, I252A mutant (human)
[2] = target: p75^NTR TMD-AraTM chimera, P253G mutant (human)
[3] = target: p75^NTR TMD-AraTM chimera (MBP - p75^NTR transmembrane domain - AraC), wild type (human)
[4] = target: p75^NTR TMD-AraTM chimera, V254A mutant (human)

binding [1]: binds
Binder: NLAPVYCSILAAVVVGLVAYIAFKRW (domain or fragment) [p75^NTR TMD-AraTM chimera, I252A mutant]

binding [2]: binds
Binder: NLIGVYCSILAAVVVGLVAYIAFKRW (domain or fragment) [p75^NTR TMD-AraTM chimera, P253G mutant]

binding [3]: binds
Binder: NLIPVYCSILAAVVVGLVAYIAFKRW (domain or fragment) [p75^NTR TMD-AraTM chimera (MBP - p75^NTR transmembrane domain - AraC), wild type]

binding [4]: binds
Binder: NLIPAYCSILAAVVVGLVAYIAFKRW (domain or fragment) [p75^NTR TMD-AraTM chimera, V254A mutant]
